No constants are given. Whether binding was seen depends on the method and setting. Binding can be weak; no strength is given.
Molecular target: T1, GABPα (UniProt Q06546)
T1 sequence: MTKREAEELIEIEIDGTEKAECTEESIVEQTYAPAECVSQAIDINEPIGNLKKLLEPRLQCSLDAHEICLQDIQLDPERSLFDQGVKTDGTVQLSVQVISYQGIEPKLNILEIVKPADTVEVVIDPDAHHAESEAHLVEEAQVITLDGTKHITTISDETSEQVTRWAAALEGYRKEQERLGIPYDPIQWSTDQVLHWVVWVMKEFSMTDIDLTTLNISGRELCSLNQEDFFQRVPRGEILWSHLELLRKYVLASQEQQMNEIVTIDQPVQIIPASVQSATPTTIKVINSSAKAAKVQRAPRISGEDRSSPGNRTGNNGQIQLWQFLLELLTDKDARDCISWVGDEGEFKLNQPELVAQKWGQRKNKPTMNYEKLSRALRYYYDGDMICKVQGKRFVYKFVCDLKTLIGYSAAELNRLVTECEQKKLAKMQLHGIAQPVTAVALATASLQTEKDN
Test: native gel or EMSA; in vitro translated GABPα, β and γ mixed with the 32P-labelled −51 ETS DNA probe; the protein complexes are seen on the DNA; binding buffer 2 mM HEPES-NaOH pH 7.9, 2% glycerol, 0.01 mM EDTA, 0.25 mM DTT, 5 mM KCl, 0.1 mg/ml BSA, poly dI-dC; 40 min at 4°C; 4% native polyacrylamide gel, 0.5× TBE; supershift with anti-GABP antibodies

- binding: binds
Substance: GABPγ
